From patent publication US12479803B2, “Antimalarial compounds” (UNIVERSITY OF CENTRAL FLORIDA RESEARCH FOUNDATION, INC., priority 2019, dated 2025)
For at least one compound, name, drawing or mass did not settle the structure.

Tested on: asynchronous Dd2 parasite cultures
Experiment: Kill kinetic experiments (rate of killing, parasitocidal/parasitostatic)
Assay type: cell-based, Plasmodium falciparum
Conditions: 5×EC50 (Atovaquone 6.6 nM) for 6, 12, 24 and 48 h
Experimental: To study whether arylvinylquinolines exerted their antiplasmodial activity through a parasitocidal or parasitostatic mechanism, kill kinetic experiments in Dd2 strain were performed. […] After washing to remove the inhibitors at these time points, the growth of the cultures was continued to be assessed for 96 h.
FIGS. 3A, 3B, 3C, and 3D are examples according to various embodiments illustrating rate of killing and parasitocidal/parasitostatic activity determination of arylvinylquinolines. […] After each exposure, cultures were washed three times in RPMI, resuspended in culture media, and monitored for parasite growth daily for 4 days. DHA and Atovaquone (50 nM and 6.6 nM) were included as fast and slow acting controls, respectively. Parasitemia was determined by microscopy of Giemsa stained smear.

`O=C1C(O)=C([C@H]2CC[C@H](c3ccc(Cl)cc3)CC2)C(=O)c2ccccc21` [Atovaquone, reference compound] was tested, and the “rate of killing (parasitemia after exposure and wash-out)” value was “slow-acting”.
